In article PMC5996148:
Values joined by “and” are separate entries in the source; they are usually repeats but may differ in a detail not shown here. Identical values can stand only once. This is one part of the list.

What was measured:
Experiment in all cases: protein microarray (ProtoArray v5.0), streptavidin-Alexa Fluor 647
Settings in all cases: 3'-biotin; 20 mM Tris (pH 7.5), 5 mM MgCl2, 100 mM KCl, 0.1% Tween-20, A/T-rich and random oligonucleotide blockers; temperature not stated; high values mean tight binding
[1] = tested on: Calcium-activated potassium channel subunit beta-3 (human)
[2] = tested on: Calcium-binding protein 39-like (human)
[3] = tested on: Calcium-transporting ATPase type 2C member 1 (human)
[4] = tested on: Calcium/calmodulin-dependent protein kinase type 1 (human)
Calpastatin (human) = tested on: Calpastatin (human)
Calretinin (human) = tested on: Calretinin (human)
[5] = tested on: Carbonic anhydrase 3 (human)
[6] = tested on: Carboxypeptidase A1 (human)
[7] = tested on: Carboxypeptidase A2 (human)
[8] = tested on: Caspase recruitment domain-containing protein 14 (human)
[9] = tested on: Caspase recruitment domain-containing protein 9 (human)
[10] = tested on: Caspase-1 inhibitor INCA (human)
Cathepsin Z (human) = tested on: Cathepsin Z (human)
[11] = tested on: Cation transport regulator-like protein 2 (human)
[12] = tested on: Cbp/p300-interacting transactivator 1 (human)
[13] = tested on: Cell differentiation protein RCD1 homolog (human)
[14] = tested on: Cell growth regulator with RING finger domain protein 1 (human)
[15] = tested on: Centromere protein L (human)
[16] = tested on: Centromere protein Q (human)
[17] = tested on: Centromere protein T (human)

Q: With “GGGAGGCTGAGGCAGG [G4-1 biotinylated (PQS2)]” as the sequence, how does the binding signal [1] read?
A: Its binding signal is -0.288 z-score.

Q: What about the binding signal [2] of the same sequence?
A: The binding signal was -0.355 z-score.

Q: And the binding signal [3]?
A: The binding signal was -0.324 z-score.

Q: And the binding signal [4]?
A: The binding signal was -0.36 z-score.

Q: What about the binding signal (Calpastatin (human)) of the same sequence?
A: Its binding signal is -0.339 z-score.

Q: What about the binding signal (Calretinin (human)) of the same sequence?
A: Its binding signal is -0.337 z-score.

Q: What about the binding signal [5] of the same sequence?
A: The binding signal was -0.339 z-score.

Q: What about the binding signal [6] of the same sequence?
A: The binding signal was -0.324 z-score.

Q: What about the binding signal [7] of the same sequence?
A: The binding signal was -0.319 z-score.

Q: And the binding signal [8]?
A: The binding signal was -0.334 z-score.

Q: What about the binding signal [9] of the same sequence?
A: The binding signal was -0.336 z-score and -0.351 z-score.

Q: And the binding signal [10]?
A: Its binding signal is -0.291 z-score.

Q: And the binding signal (Cathepsin Z (human))?
A: Its binding signal is -0.331 z-score.

Q: What about the binding signal [11] of the same sequence?
A: Its binding signal is -0.315 z-score and -0.306 z-score.

Q: What about the binding signal [12] of the same sequence?
A: The binding signal was -0.323 z-score.

Q: And the binding signal [13]?
A: Its binding signal is -0.345 z-score.

Q: What about the binding signal [14] of the same sequence?
A: The binding signal was -0.302 z-score.

Q: What about the binding signal [15] of the same sequence?
A: The binding signal was -0.284 z-score.

Q: And the binding signal [16]?
A: Its binding signal is -0.376 z-score.

Q: What about the binding signal [17] of the same sequence?
A: The binding signal was -0.253 z-score.
